From doi:10.1101/2025.07.09.662391
Results are given in words; binding and its absence hold for the method and conditions named. Binding seen in cells or lysates may run through a third protein. Here binding means that the protein was enriched with, or labelled near, the bait; the list need not be complete. For some assays here: No binding means not detected with the bait.

Amino acid sequences for entries named in this document (tags omitted). A change or cut given only in a name is not applied to a line headed by its entry. Chains listed by the source or under a name are the forms on record and can include a tag or linker. Residues count along the entry.
UniProt P20700: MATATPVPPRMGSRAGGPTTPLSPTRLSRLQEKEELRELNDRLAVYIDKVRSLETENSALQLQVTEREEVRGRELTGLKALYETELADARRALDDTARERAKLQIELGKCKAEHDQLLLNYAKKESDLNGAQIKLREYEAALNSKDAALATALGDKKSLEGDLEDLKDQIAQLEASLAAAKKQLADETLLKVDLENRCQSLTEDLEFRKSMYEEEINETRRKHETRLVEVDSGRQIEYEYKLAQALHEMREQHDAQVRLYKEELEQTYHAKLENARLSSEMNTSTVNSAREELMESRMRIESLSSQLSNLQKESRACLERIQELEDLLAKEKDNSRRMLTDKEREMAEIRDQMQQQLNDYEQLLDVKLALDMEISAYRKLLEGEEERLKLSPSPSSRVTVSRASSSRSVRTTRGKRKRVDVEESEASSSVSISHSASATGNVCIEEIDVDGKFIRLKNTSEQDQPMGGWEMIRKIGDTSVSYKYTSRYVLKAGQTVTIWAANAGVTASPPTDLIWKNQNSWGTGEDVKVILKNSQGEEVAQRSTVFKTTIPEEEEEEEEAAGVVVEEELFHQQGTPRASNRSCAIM
N-terminal GFP-tagged truncated Lamin B1 lacking the NLS (LMNB1_N409), in SH-SY5Y-derived neurons: residues 1-409 of P20700
UniProt P31946: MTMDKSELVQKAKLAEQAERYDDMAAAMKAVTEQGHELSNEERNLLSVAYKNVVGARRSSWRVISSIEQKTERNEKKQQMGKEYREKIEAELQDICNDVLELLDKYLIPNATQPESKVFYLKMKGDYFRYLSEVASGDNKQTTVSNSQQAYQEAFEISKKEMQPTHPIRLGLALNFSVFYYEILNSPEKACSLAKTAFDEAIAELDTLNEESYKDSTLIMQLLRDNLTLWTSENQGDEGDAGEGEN
UniProt P63104: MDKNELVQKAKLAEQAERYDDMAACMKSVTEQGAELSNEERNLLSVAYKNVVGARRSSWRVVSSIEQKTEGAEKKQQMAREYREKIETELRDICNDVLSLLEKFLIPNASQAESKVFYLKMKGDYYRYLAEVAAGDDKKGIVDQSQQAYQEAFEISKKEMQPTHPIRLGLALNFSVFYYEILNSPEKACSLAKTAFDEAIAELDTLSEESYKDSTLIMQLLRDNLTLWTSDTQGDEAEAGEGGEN
UniProt P62258: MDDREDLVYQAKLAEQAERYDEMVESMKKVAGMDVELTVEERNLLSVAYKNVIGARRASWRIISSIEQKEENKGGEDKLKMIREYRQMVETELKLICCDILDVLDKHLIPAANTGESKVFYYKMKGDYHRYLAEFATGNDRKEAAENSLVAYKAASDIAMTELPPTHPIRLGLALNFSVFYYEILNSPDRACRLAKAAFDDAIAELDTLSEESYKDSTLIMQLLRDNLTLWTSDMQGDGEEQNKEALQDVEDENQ

Columns and labels:
Test in all cases: affinity purification with mass spectrometry
[1] = biological target: N-terminal GFP-tagged truncated Lamin B1 lacking the NLS (LMNB1_N409), in SH-SY5Y-derived neurons (human) (UniProt P20700)
[2] = biological target: N-terminal GFP-tagged truncated Lamin B1 lacking the NLS (LMNB1_N409) (human) (UniProt P20700)
[3] = biological target: N-terminal GFP-tagged full length Lamin B1 (LMNB1_FL) (human) (UniProt P20700)
[4] = biological target: N-terminal GFP-tagged full length Lamin B1 (LMNB1_FL), in SH-SY5Y-derived neurons (human) (UniProt P20700)

Molecule | binding [1] | binding [2] | further results
YWHAB (14-3-3β), in SH-SY5Y-derived neurons (from UniProt P31946 1-246) | binds | – | –
YWHAZ (14-3-3ζ) (from UniProt P63104 1-245) | – | binds | –
YWHAB (14-3-3β) (from UniProt P31946 1-246) | – | binds | –
KPNA6 (karyopherin subunit alpha 6, Importin-α family) (from UniProt O60684 1-536) | – | binds | binding [3]: binds
YWHAZ (14-3-3ζ), in SH-SY5Y-derived neurons (from UniProt P63104 1-245) | binds | – | –
YWHAE (14-3-3ε), in SH-SY5Y-derived neurons (from UniProt P62258 1-255) | binds | – | –
YWHAG (14-3-3γ) (protein, UniProt P61981 1-247) MVDREQLVQKARLAEQAERYDDMAAAMKNVTELNEPLSNEERNLLSVAYKNVVGARRSSWRVISSIEQKTSADGNEKKIEMVRAYREKIEKELEAVCQDVLSLLDNYLIKNCSETQYESKVFYLKMKGDYYRYLAEVATGEKRATVVESSEKAYSEAHEISKEHMQPTHPIRLGLALNYSVFYYEIQNAPEQACHLAKTAFDDAIAELDTLNEDSYKDSTLIMQLLRDNLTLWTSDQQDDDGGEGNN | – | binds | –
YWHAH (14-3-3 η), in SH-SY5Y-derived neurons (protein, UniProt Q04917 1-246) MGDREQLLQRARLAEQAERYDDMASAMKAVTELNEPLSNEDRNLLSVAYKNVVGARRSSWRVISSIEQKTMADGNEKKLEKVKAYREKIEKELETVCNDVLSLLDKFLIKNCNDFQYESKVFYLKMKGDYYRYLAEVASGEKKNSVVEASEAAYKEAFEISKEQMQPTHPIRLGLALNFSVFYYEIQNAPEQACLLAKQAFDDAIAELDTLNEDSYKDSTLIMQLLRDNLTLWTSDQQDEEAGEGN | binds | – | binding [4]: no binding
MICAL1, in SH-SY5Y-derived neurons (protein, UniProt Q8TDZ2 1-1067) MASPTSTNPAHAHFESFLQAQLCQDVLSSFQELCGALGLEPGGGLPQYHKIKDQLNYWSAKSLWTKLDKRAGQPVYQQGRACTSTKCLVVGAGPCGLRVAVELALLGARVVLVEKRTKFSRHNVLHLWPFTIHDLRALGAKKFYGRFCTGTLDHISIRQLQLLLLKVALLLGVEIHWGVTFTGLQPPPRKGSGWRAQLQPNPPAQLANYEFDVLISAAGGKFVPEGFKVREMRGKLAIGITANFVNGRTVEETQVPEISGVARIYNQSFFQSLLKATGIDLENIVYYKDDTHYFVMTAKKQCLLRLGVLRQDWPDTNRLLGSANVVPEALQRFTRAAADFATHGKLGKLEFAQDAHGQPDVSAFDFTSMMRAESSARVQEKHGARLLLGLVGDCLVEPFWPLGTGVARGFLAAFDAAWMVKRWAEGAESLEVLAERESLYQLLSQTSPENMHRNVAQYGLDPATRYPNLNLRAVTPNQVRDLYDVLAKEPVQRNNDKTDTGMPATGSAGTQEELLRWCQEQTAGYPGVHVSDLSSSWADGLALCALVYRLQPGLLEPSELQGLGALEATAWALKVAENELGITPVVSAQAVVAGSDPLGLIAYLSHFHSAFKSMAHSPGPVSQASPGTSSAVLFLSKLQRTLQRSRAKENAEDAGGKKLRLEMEAETPSTEVPPDPEPGVPLTPPSQHQEAGAGDLCALCGEHLYVLERLCVNGHFFHRSCFRCHTCEATLWPGGYEQHPGDGHFYCLQHLPQTDHKAEGSDRGPESPELPTPSENSMPPGLSTPTASQEGAGPVPDPSQPTRRQIRLSSPERQRLSSLNLTPDPEMEPPPKPPRSCSALARHALESSFVGWGLPVQSPQALVAMEKEEKESPFSSEEEEEDVPLDSDVEQALQTFAKTSGTMNNYPTWRRTLLRRAKEEEMKRFCKAQTIQRRLNEIEAALRELEAEGVKLELALRRQSSSPEQQKKLWVGQLLQLVDKKNSLVAEEAELMITVQELNLEEKQWQLDQELRGYMNREENLKTAADRQAEDQVLRKLVDLVNQRDALIRFQEERRLSELALGTGAQG | binds | – | binding [4]: no binding
YWHAG (14-3-3γ), in SH-SY5Y-derived neurons (protein, UniProt P61981 1-247) MVDREQLVQKARLAEQAERYDDMAAAMKNVTELNEPLSNEERNLLSVAYKNVVGARRSSWRVISSIEQKTSADGNEKKIEMVRAYREKIEKELEAVCQDVLSLLDNYLIKNCSETQYESKVFYLKMKGDYYRYLAEVATGEKRATVVESSEKAYSEAHEISKEHMQPTHPIRLGLALNYSVFYYEIQNAPEQACHLAKTAFDDAIAELDTLNEDSYKDSTLIMQLLRDNLTLWTSDQQDDDGGEGNN | binds | – | –
YWHAQ (14-3-3τ), in SH-SY5Y-derived neurons (protein, UniProt P27348 1-245) MEKTELIQKAKLAEQAERYDDMATCMKAVTEQGAELSNEERNLLSVAYKNVVGGRRSAWRVISSIEQKTDTSDKKLQLIKDYREKVESELRSICTTVLELLDKYLIANATNPESKVFYLKMKGDYFRYLAEVACGDDRKQTIDNSQGAYQEAFDISKKEMQPTHPIRLGLALNFSVFYYEILNNPELACTLAKTAFDEAIAELDTLNEDSYKDSTLIMQLLRDNLTLWTSDSAGEECDAAEGAEN | binds | – | –
